Laboratory results taken from PubChem BioAssay AID504467 (National Center for Advancing Translational Sciences (NCATS), 2011).
The campaign covered roughly 330,000 compounds. About 7,700 (2.3%) were called active. Inconclusive results, whose numbers are uncertain, are shown with a selection of clear calls. Calls come from the whole dose curve; as a rule, active = well fitted inhibition curve with a large enough effect; inconclusive = small, poorly fitted or top-dose-only effect, or effect the other way; inactive = flat fitted curve, though single readings scatter. Potencies beside an inconclusive call are fits to weak or partial responses and may not hold up.

test: qHTS screen for small molecules that inhibit ELG1-dependent DNA repair in human embryonic kidney (HEK293T) cells expressing luciferase-tagged ELG1; settings: HEK293T ELG1-luciferase reporter, luminescence, 16 h, DNA damage induced by 5-fluorouridine; activity change, negative = inhibition: at 46.1 µM (top of the series); note: nearly all actives have a fitted effect of over 55% in size
Summary of the method: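 DMSO vehicle served as the neutral condition. Each well held 2,000 cells given 5-fluorouridine plus compound; after 16 hr at 37 °C/5% CO2, ONE-Glo was added and luciferase measured 30 min later.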
% is set by controls: 0 for no effect and ±100 for the full control effect; potency is the fitted concentration of half-maximal effect.

SMILES	activity change, negative = inhibition	Potency
CC1=CCC2C(=O)N(c3cccc(C(=O)NCc4ccccc4)c3)C(=O)C2C1 (configuration not stated)	inactive: 3.7%	–
Cc1ccc(C(=O)Nc2nnc(C3CCCCC3)s2)o1	–	inconclusive: 8.2 µM [activator, partial curve]
CCOc1ccc(NC(=O)NCc2cccn2C)cc1	inconclusive: 123% [activator]	–
Cc1ccc(NC(=O)c2cc(CC(C)C)nc3ccccc23)cc1	–	active: 20.6 µM
CC(=O)Nc1ccc(S(=O)(=O)Oc2ccc(/C=N/NC(=O)c3ccc(Cl)cc3)cc2)cc1	–	inconclusive: 16.4 µM [inhibitor, single point]
COc1ccc(C2CCCN2C(=O)Nc2ccc(C)c(C)c2)cc1OC (configuration not stated)	–	inconclusive: 32.6 µM [inhibitor, partial curve, poor fit]
COc1cc(C2/C(=C(\O)c3cc(C)ccc3C)C(=O)C(=O)N2CCN(C)C)ccc1O (configuration not stated)	–	inconclusive: 0.517 µM [inhibitor, single point]
COc1ccc(NC(=O)CN(c2ccc([N+](=O)[O-])cc2)S(=O)(=O)c2ccccc2)cc1	–	inconclusive: 29.1 µM [inhibitor, single point]
COc1ccc(CC(=O)N2CCCc3ccccc32)cc1OC	–	inconclusive: 14.6 µM [inhibitor, single point]
COc1ccc(-c2nnc3ccc(SC)nn23)cc1	–	inconclusive: 29.1 µM [inhibitor, single point]
CCN(CC)C(=O)COCc1cc(-c2ccc3c(c2)OCO3)on1	–	inconclusive: 18.3 µM [activator, partial curve]
O=S(=O)(NCCOCC(F)(F)C(F)F)c1ccc2oc3ccccc3c2c1	inactive: -4.21%	–
Cc1cc2nc(-c3ccc(SCc4ccc(C#N)cc4)nc3)[nH]c2cc1C	–	inconclusive: 32.6 µM [inhibitor, single point]
CCC(CC)c1nnc(NC(=O)c2cc(C(=O)OC)cc([N+](=O)[O-])c2)s1	inactive: -18.2%	–
Cc1cn([C@H]2C[C@H](O)[C@@H](CCC(=O)NCCc3c[nH]c4ccccc34)O2)c(=O)[nH]c1=O	–	inconclusive: 16.4 µM [activator, partial curve, poor fit]
NC(=O)c1oc2ccc(Cl)cc2c1NC(=O)CN1CCOCC1	–	inconclusive: 6.51 µM [inhibitor, partial curve, poor fit]
Cc1ccc(C(=O)NNC(=O)C(NC(=O)c2cccc(C)c2)C(C)C)cc1 (configuration not stated)	–	inconclusive: 0.82 µM [inhibitor, single point]
Cc1cc(-c2nc(C)c(C(=O)NNC(=O)NC(C)C)s2)no1	–	inconclusive: 29.1 µM [inhibitor, single point]
Cc1ccc2nc(-c3ccccc3)cc(C(=O)O)c2c1	–	inconclusive: 23.1 µM [activator, partial curve, poor fit]
COc1cnc(-c2ccccn2)nc1N(C)c1ccccc1	–	inconclusive: 29.1 µM [activator, single point]
Cc1ccc(S(=O)(=O)N(CCC#N)C2CCCCC2)c2nsnc12	inactive: 2.65%	–

SMILES	activity change, negative = inhibition	Potency
O=C(N/N=C/c1ccccc1OC(F)F)C1=COCCO1	–	inconclusive: 6.51 µM [activator, partial curve]
CCOC(=O)c1c(C)[nH]c(C(C)=NNC(=O)c2cccs2)c1C	–	inconclusive: 2.31 µM [activator, partial curve]
C[C@H](CO)N1C[C@H](C)[C@@H](CN(C)CC2CCCCC2)Oc2c(NS(=O)(=O)c3ccc(F)cc3)cccc2C1=O	–	inconclusive: 23.1 µM [activator, partial curve, poor fit]
CCOc1ccccc1C(=O)NCC(=O)Nc1ccc2c(c1)OCO2	inactive: 15.6%	–
CCOC(=O)c1sc(NC(=O)c2ccc(Br)o2)cc1C	–	inconclusive: 2.06 µM [activator, partial curve]
COc1ccc(C2=NN(C(=O)CSC3=NN4CCCC(=O)N=C4S3)C(c3cccc(OC)c3OC)C2)cc1 (configuration not stated)	–	inconclusive: 11.6 µM [inhibitor, partial curve]
O=C(C1=C[C@H](C2CC2)C[C@H](OCCCCO)O1)N1CCN(Cc2ccccc2)CC1	–	inconclusive: 18.3 µM [activator, partial curve]
S=C(NCc1ccco1)N1CCC(c2nc3ccccc3o2)CC1	–	inconclusive: 18.3 µM [inhibitor, single point]
O=C(NCc1ccccc1)C1=C[C@@H](C2CC2)C[C@@H](OCCCCO)O1	inactive: 1.69%	–
CCCn1c(CCl)nc2cc(S(=O)(=O)N3CCOCC3)ccc21	–	inconclusive: 18.3 µM [activator, partial curve, poor fit]
Cc1ccc(-c2csc(NC3OC(=O)c4ccccc43)n2)cc1 (configuration not stated)	–	inconclusive: 23.1 µM [inhibitor, single point]
CN1CCN(CCC(=O)N/N=C/C=C2\N(C)c3ccccc3C2(C)C)CC1	inactive: 10.6%	–
COC(=O)c1sccc1NC(=O)Nc1cc(C)ccc1OC	inactive: -4.58%	–
COc1ccc(-c2nnc(NC(=O)C(C)C)s2)c(OC)c1	–	inconclusive: 25.9 µM [activator, single point]
COc1ccc(CCN=C(NS(=O)(=O)c2ccccc2)c2ccccc2)cc1OC	inactive: -11.6%	–
CCN(CC)S(=O)(=O)c1ccc(N2CCOCC2)c(NC(=O)COc2ccccc2C)c1	–	active: 5.8 µM
O=C(CCc1nc(-c2ccc(Cl)cc2)no1)NCC1CCCO1 (configuration not stated)	–	inconclusive: 23.1 µM [inhibitor, partial curve, poor fit]
O=C(Nc1nnc(SCc2c(Cl)cccc2Cl)s1)c1cccc([N+](=O)[O-])c1	–	inconclusive: 29.1 µM [inhibitor, single point]
CCOC(=O)c1cccc(NC(=O)CN(c2ccc(OC)cc2)S(=O)(=O)c2c(C)noc2C)c1	–	inconclusive: 20.6 µM [inhibitor, single point]
O=C(NCc1ccccn1)Nc1ccc(F)c(Cl)c1	–	inconclusive: 32.6 µM [activator, partial curve, poor fit]
CCOC(=O)Cc1nnc2c(Nc3ccccc3F)nc3nonc3n12	–	inconclusive: 20.6 µM [inhibitor, partial curve]

Look-ups from the entries so far.
`CCN(CC)S(=O)(=O)c1ccc(N2CCOCC2)c(NC(=O)COc2ccccc2C)c1` | Potency: active: 5.8 µM
`COc1ccc(C2CCCN2C(=O)Nc2ccc(C)c(C)c2)cc1OC` (configuration not stated) | Potency: inconclusive: 32.6 µM [inhibitor, partial curve, poor fit]
`CCOc1ccc(NC(=O)NCc2cccn2C)cc1` | activity change, negative = inhibition: inconclusive: 123% [activator]
